PubChem BioAssay AID1259254 – NCATS, 2017
Here is a random part of about 59,000 reagents. About 1,550 of all reagents (2.6%) were called active. 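G2 share is only a proxy for re-replication; each gene was hit by three separate siRNAs, and active genes were retested.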 The numbers tell different reagents against one gene apart. Not all columns of the deposit are shown. Reagent sequences are not shown. The record does not give: the amount of reagent.

- Aim: 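Gene knock-downs that lead to re-replication, shown by excess G2 DNA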 (primary screen)
- Cells: human HCT116 colorectal cancer cells
- Reagent: single siRNA against human genes
- Duration: 3 days
- Detection: 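Nuclei stained with Hoechst and imaged; cell-cycle phase assigned by DNA content; G2 share scaled per plate, non-targeting siRNA 0%, GMNN siRNA 100%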
- Scale: G2 robust z-score and G2 cells, % of GMNN control: higher = more G2 cells, more excess DNA replication
- Rule for the call: 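An siRNA counts as active if its G2 robust z-score lies at least 5 MADs above the screen median; here such calls match roughly 38% of GMNN control or more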

For BPI (GeneID 671) #1, what was measured?
G2 robust z-score: 3.84; G2 cells, % of GMNN control: 30; call: inactive

Which result is listed for BPI (GeneID 671) #2?
G2 robust z-score: -0.278; G2 cells, % of GMNN control: 1.01; call: inactive

Which result is listed for BPI (GeneID 671) #3?
G2 robust z-score: -0.268; G2 cells, % of GMNN control: 1.08; call: inactive

For ISM1 (GeneID 140862) #1, what does the deposit list?
G2 robust z-score: 0.434; G2 cells, % of GMNN control: 6.02; call: inactive

Which result is listed for ISM1 (GeneID 140862) #2?
G2 robust z-score: 2.49; G2 cells, % of GMNN control: 20.5; call: inactive

What did the screen give for ISM1 (GeneID 140862) #3?
G2 robust z-score: 0.314; G2 cells, % of GMNN control: 5.17; call: inactive

For MGARP (GeneID 84709) #1, what does the deposit list?
G2 robust z-score: -1.33; G2 cells, % of GMNN control: -6.37; call: inactive

With MGARP (GeneID 84709) #2, how do the results read?
G2 robust z-score: -0.599; G2 cells, % of GMNN control: -1.24; call: inactive

With MGARP (GeneID 84709) #3, what was measured?
G2 robust z-score: -0.34; G2 cells, % of GMNN control: 0.575; call: inactive

What did the screen give for THOC5 (GeneID 8563) #1?
G2 robust z-score: -0.635; G2 cells, % of GMNN control: -1.5; call: inactive

For THOC5 (GeneID 8563) #2, what does the deposit list?
G2 robust z-score: 0.00507; G2 cells, % of GMNN control: 3; call: inactive

What is on record for THOC5 (GeneID 8563) #3?
G2 robust z-score: 3.22; G2 cells, % of GMNN control: 25.6; call: inactive

What did the screen give for KPNA5 (GeneID 3841) #1?
G2 robust z-score: 0.755; G2 cells, % of GMNN control: 8.28; call: inactive

Which result is listed for KPNA5 (GeneID 3841) #2?
G2 robust z-score: 3.55; G2 cells, % of GMNN control: 28; call: inactive

For KPNA5 (GeneID 3841) #3, what does the deposit list?
G2 robust z-score: 1.66; G2 cells, % of GMNN control: 14.7; call: inactive

With IK (GeneID 3550) #1, how do the results read?
G2 robust z-score: 0.985; G2 cells, % of GMNN control: 9.9; call: inactive

How did the screen score IK (GeneID 3550) #2?
G2 robust z-score: 0.396; G2 cells, % of GMNN control: 5.75; call: inactive

What is on record for IK (GeneID 3550) #3?
G2 robust z-score: 0.229; G2 cells, % of GMNN control: 4.58; call: inactive

2 consecutive records already listed, quoted:
ISM1 (GeneID 140862) #2: G2 robust z-score = 2.49; G2 cells, % of GMNN control = 20.5; call = inactive
ISM1 (GeneID 140862) #3: G2 robust z-score = 0.314; G2 cells, % of GMNN control = 5.17; call = inactive
